The other results are listed elsewhere or left out.
Key:
Assay in all cases: log2 fold change, soluble protein after heating vs DMSO (PISA); higher = thermal stabilisation; K562 lysate, 10 uM; active = over 0.2 and 3.5 SD of the protein, either way, in both replicates (recomputed)
vemurafenib = compound: CCCS(=O)(=O)Nc1ccc(F)c(C(=O)c2c[nH]c3ncc(-c4ccc(Cl)cc4)cc23)c1F [vemurafenib]
Method in brief: (§1)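 Thermal stability, expressed as log-two fold change relative to solvent controls, is given from duplicates. Crude K562 extract in PBS pH 7.4 with 1 mM MgCl2, at 1 mg/mL protein, was treated with 10 μM compound for 30 min and heated in aliquots for 3 min across 48°C-58°C. After pooling, adjustment to 0.5% NP-40 at 4°C and centrifugation at 21,000xg for 90 min, supernatant protein was measured by TMTpro 16plex LC-MS/MS with channel sums equalised.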

Protein sequences, listed by entry. Tags and fused reporters are not part of them. Lines headed by an entry give the natural chain unless they say otherwise; changes in a name come on top.
UniProt Q9BQQ3: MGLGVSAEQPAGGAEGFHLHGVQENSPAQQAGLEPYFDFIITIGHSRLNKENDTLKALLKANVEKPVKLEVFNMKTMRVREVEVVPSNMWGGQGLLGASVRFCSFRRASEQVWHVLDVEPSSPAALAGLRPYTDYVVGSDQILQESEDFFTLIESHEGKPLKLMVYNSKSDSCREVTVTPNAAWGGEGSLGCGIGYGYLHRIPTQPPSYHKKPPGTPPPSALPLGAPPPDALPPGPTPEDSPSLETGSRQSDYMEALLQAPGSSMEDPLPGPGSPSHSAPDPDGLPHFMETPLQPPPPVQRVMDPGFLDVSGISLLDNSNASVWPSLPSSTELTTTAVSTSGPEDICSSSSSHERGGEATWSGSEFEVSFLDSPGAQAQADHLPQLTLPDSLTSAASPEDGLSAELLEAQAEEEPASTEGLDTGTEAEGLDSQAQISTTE
UniProt Q9UBI6: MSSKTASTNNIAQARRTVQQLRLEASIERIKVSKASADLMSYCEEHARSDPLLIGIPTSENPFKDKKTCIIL
UniProt Q96D09: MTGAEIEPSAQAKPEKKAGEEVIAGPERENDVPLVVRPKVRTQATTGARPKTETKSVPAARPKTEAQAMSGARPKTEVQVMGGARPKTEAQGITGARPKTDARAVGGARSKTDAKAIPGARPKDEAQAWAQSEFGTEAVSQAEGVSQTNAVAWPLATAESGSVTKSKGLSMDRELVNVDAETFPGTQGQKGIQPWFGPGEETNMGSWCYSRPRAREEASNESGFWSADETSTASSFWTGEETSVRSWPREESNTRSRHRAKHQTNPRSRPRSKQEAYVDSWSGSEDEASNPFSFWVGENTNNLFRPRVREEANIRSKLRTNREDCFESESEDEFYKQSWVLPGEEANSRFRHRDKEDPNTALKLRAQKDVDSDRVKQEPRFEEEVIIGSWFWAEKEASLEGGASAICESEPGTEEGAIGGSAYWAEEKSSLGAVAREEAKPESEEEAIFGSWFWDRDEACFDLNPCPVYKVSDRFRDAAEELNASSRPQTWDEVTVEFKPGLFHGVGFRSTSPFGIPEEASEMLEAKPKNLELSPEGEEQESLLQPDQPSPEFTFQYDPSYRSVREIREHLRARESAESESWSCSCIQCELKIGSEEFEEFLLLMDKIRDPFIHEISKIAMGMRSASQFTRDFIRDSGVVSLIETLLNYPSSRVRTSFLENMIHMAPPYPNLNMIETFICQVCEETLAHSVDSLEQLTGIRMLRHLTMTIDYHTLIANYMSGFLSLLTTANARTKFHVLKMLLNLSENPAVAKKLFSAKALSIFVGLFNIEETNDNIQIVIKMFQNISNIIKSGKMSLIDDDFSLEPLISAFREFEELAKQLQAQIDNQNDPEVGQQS
UniProt Q8IXQ4: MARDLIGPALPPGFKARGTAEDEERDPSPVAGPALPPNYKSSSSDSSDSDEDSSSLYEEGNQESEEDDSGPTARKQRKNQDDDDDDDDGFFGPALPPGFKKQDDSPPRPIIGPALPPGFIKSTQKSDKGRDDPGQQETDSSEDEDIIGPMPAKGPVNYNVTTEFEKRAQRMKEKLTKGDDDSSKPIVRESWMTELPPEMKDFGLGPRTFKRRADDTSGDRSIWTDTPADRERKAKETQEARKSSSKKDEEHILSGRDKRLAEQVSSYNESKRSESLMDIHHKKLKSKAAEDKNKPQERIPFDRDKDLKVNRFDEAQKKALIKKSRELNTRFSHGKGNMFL
UniProt Q96I76: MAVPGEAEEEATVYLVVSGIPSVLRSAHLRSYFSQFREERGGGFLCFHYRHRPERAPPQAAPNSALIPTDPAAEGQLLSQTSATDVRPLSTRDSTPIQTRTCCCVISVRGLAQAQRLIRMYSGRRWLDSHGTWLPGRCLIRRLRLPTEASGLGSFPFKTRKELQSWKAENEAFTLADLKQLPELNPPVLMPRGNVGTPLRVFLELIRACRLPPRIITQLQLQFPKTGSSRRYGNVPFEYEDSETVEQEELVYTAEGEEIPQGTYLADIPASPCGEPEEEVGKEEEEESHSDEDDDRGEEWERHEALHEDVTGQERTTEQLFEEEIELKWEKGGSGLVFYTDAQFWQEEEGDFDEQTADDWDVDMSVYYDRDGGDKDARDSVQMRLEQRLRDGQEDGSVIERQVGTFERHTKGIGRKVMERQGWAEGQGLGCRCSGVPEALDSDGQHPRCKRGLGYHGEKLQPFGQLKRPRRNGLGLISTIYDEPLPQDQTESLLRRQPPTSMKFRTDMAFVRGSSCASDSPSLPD
UniProt Q9HAV0, whole entry, looked up: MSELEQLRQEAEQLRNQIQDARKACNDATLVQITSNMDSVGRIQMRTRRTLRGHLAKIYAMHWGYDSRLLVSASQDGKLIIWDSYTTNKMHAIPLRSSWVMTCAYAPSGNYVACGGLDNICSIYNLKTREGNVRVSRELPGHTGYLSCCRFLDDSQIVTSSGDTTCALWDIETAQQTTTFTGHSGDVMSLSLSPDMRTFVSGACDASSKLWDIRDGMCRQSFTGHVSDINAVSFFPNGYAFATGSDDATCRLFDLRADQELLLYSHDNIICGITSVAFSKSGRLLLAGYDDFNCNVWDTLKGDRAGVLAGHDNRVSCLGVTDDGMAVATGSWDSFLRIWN
UniProt Q9H4G4: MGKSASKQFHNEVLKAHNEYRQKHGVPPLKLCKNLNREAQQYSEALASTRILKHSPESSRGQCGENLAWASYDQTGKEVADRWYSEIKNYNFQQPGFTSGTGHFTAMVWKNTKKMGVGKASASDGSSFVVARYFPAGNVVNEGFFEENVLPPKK
UniProt Q14956: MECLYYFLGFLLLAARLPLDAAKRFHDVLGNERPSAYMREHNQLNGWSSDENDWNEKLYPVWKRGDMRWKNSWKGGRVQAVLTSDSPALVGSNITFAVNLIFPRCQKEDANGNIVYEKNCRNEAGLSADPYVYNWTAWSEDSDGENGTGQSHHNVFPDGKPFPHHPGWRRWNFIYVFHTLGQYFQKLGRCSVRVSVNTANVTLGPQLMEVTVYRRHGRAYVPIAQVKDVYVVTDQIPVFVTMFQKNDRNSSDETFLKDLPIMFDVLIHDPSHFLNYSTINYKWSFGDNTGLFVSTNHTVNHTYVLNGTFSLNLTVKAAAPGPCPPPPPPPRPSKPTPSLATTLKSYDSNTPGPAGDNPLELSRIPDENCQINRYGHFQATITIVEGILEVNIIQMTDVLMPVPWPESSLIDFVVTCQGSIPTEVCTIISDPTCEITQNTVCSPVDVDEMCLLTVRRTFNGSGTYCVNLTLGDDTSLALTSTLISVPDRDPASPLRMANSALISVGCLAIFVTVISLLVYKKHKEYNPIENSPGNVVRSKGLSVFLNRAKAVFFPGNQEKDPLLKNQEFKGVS
UniProt Q9NU53: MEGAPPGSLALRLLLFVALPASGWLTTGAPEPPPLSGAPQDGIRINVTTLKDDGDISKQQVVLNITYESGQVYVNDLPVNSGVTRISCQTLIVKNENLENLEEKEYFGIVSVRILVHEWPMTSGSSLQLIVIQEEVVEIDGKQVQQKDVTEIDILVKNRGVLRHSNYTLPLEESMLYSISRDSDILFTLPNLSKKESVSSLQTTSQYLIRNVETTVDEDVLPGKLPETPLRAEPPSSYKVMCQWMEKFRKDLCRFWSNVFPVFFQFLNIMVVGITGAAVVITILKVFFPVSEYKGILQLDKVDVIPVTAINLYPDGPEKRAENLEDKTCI
UniProt P35754: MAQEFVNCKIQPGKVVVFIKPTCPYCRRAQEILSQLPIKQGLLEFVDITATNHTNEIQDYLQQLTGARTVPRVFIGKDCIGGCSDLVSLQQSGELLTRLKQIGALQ
UniProt Q5JWF2, whole entry, looked up: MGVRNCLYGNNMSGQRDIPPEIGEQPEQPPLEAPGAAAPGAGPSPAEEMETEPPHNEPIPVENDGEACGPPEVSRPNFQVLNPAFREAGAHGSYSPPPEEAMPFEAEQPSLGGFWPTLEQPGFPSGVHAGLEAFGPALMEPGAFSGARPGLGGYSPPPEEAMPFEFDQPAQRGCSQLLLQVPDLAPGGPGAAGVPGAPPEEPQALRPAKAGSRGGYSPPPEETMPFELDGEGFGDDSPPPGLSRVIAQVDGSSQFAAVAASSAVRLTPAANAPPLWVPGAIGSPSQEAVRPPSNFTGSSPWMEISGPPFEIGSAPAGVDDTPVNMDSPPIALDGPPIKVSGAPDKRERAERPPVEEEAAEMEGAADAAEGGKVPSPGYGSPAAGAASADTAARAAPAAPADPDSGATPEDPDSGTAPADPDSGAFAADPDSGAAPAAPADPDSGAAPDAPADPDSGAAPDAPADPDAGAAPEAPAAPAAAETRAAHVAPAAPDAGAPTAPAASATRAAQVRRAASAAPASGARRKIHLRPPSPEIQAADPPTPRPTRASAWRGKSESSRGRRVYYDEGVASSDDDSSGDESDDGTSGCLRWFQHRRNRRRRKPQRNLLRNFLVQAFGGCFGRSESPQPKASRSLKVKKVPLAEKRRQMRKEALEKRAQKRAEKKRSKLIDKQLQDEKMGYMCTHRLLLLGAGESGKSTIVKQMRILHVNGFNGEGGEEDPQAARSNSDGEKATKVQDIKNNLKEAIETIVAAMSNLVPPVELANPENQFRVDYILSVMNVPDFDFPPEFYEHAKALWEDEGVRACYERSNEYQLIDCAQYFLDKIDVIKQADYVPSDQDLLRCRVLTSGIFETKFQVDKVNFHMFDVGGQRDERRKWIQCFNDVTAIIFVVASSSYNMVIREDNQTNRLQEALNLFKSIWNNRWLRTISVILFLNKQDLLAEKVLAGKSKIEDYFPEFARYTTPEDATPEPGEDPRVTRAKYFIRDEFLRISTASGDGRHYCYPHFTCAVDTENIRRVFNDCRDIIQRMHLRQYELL
UniProt Q86V85: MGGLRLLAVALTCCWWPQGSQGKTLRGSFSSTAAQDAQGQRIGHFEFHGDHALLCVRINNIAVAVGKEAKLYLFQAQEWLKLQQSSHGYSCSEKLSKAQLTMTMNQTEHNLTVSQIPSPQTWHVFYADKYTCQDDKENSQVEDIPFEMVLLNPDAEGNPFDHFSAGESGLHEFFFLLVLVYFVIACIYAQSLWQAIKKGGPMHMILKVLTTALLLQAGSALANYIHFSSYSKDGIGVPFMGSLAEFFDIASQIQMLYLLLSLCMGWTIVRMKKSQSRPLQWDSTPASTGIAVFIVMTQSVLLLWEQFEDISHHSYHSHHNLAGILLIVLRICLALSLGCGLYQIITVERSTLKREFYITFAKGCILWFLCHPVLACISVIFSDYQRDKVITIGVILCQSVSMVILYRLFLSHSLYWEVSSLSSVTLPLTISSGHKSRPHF
UniProt P36959: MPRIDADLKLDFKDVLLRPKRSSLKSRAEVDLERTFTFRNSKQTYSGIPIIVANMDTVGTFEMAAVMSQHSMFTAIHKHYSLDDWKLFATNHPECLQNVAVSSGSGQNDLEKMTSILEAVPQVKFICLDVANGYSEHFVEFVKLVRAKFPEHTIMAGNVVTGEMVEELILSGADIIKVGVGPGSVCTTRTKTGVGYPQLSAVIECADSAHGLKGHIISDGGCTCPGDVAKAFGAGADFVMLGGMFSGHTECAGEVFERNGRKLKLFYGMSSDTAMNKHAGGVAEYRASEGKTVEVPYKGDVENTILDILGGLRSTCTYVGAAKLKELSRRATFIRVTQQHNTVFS
UniProt Q8TF64: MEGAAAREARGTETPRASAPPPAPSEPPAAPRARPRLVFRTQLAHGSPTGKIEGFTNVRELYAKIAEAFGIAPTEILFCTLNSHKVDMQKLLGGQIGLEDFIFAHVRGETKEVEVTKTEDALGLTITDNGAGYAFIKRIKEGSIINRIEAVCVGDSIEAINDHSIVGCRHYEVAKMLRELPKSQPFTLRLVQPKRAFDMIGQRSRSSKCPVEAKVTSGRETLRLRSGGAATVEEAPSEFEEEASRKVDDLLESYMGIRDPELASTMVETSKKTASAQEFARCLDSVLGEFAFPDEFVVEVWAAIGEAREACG
UniProt Q9H9Y4: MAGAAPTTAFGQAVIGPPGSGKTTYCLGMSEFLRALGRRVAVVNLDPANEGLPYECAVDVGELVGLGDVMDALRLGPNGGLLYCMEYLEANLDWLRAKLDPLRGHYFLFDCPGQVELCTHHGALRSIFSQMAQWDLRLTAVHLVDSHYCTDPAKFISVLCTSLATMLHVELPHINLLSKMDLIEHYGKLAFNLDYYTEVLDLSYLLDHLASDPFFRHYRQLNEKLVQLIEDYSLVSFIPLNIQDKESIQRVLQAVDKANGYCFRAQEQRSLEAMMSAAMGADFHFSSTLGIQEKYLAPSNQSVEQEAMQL
UniProt Q8WWB7: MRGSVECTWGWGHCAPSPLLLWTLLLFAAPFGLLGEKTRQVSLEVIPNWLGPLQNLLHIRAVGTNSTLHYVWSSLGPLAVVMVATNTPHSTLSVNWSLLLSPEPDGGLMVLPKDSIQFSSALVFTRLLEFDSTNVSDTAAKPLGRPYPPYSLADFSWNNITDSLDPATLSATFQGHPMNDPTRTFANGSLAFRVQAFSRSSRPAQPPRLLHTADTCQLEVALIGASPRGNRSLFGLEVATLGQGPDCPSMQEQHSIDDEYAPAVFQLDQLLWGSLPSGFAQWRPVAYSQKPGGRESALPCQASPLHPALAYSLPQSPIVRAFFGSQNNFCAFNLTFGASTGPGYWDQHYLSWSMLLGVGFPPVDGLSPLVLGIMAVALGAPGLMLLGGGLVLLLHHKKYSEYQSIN

[1] = compound: CCCS(=O)(=O)Nc1ccc(F)c(C(=O)c2c[nH]c3ncc(Cl)cc23)c1F
Method in brief: as §1

[2] = compound: CC[C@@H]1C(=O)N(C)c2cnc(Nc3ccc(C(=O)NC4CCN(C)CC4)cc3OC)nc2N1C1CCCC1
Method in brief: as §1

volasertib = compound: CC[C@@H]1C(=O)N(C)c2cnc(Nc3ccc(C(=O)N[C@H]4CC[C@H](N5CCN(CC6CC6)CC5)CC4)cc3OC)nc2N1C(C)C [volasertib]
Method in brief: as §1

[3] = compound: CCn1c(C(=O)N(C2CC2)C2CC2)cc2c3c(ncn3C)c(Nc3cc(C)n(C)n3)nc21
Method in brief: as §1

[4] = compound: CCn1cc(-c2ccnc3[nH]c(-c4cccc(CN(C)C)c4)cc23)c(-c2ccc(NC(=O)N(C)C)cc2)n1
Method in brief: as §1

[5] = compound: CN1CCC(CNc2ccc3ncc(-c4cccc(OC(F)(F)F)c4)n3n2)CC1
Method in brief: as §1

saracatinib = compound: CN1CCN(CCOc2cc(OC3CCOCC3)c3c(Nc4c(Cl)ccc5c4OCO5)ncnc3c2)CC1 [saracatinib]
Method in brief: as §1

sotrastaurin = compound: CN1CCN(c2nc(C3=C(c4c[nH]c5ccccc45)C(=O)NC3=O)c3ccccc3n2)CC1 [sotrastaurin]
Method in brief: as §1

barasertib = compound: CCN(CCCOc1ccc2c(Nc3cc(CC(=O)Nc4cccc(F)c4)[nH]n3)ncnc2c1)CCOP(=O)(O)O [barasertib]
Method in brief: as §1

Measured: log2 fold change

GORASP1 (UniProt Q9BQQ3)
inactive: vemurafenib 0.011 | [1] -0.016 | [2] -0.065 | volasertib 0.092 | [3] -0.019 | [4] -0.025 | [5] 0.08 | saracatinib 0.03 | sotrastaurin 0.016

GPATCH1 (UniProt Q9BRR8)
inactive: vemurafenib 0.01 | [1] -0.033 | barasertib 0.056 | [2] -0.076 | volasertib -0.037 | [3] 0.038 | [4] 0.293 | [5] -0.066 | saracatinib 0.075 | sotrastaurin -0.015

GNG12 (UniProt Q9UBI6)
inactive: vemurafenib -0.084 | [4] -0.055 | [5] -0.007

GPRASP2 (UniProt Q96D09)
inactive: vemurafenib 0.045 | barasertib -0.121 | [2] 0.047 | [3] -0.006

GKAP1 (UniProt Q5VSY0)
inactive: sotrastaurin 0.111

GOLIM4 (UniProt F8W785)
inactive: [4] 0.124 | [5] -0.131 | sotrastaurin 0.021

GMEB1 isoform 2 (UniProt Q9Y692)
inactive: [3] -0.011 | sotrastaurin -0.056

GOLGA8R (UniProt I6L899)
inactive: [1] 0.096 | barasertib -0.01 | volasertib 0.098 | [3] -0.241 | saracatinib 0.002 | sotrastaurin -0.152

GPAM (UniProt Q9HCL2)
inactive: [3] 0.149

GLCE (UniProt O94923)
inactive: [1] -0.022 | barasertib 0.117 | [2] 0.048 | volasertib 0.108 | [3] -0.043 | [4] -0.063 | [5] -0.014 | saracatinib 0.063 | sotrastaurin -0.047

GPALPP1 (UniProt Q8IXQ4)
inactive: vemurafenib 0.008 | [1] -0.004 | barasertib -0.029 | [2] 0.082 | volasertib 0.005 | [3] -0.02 | [4] 0.228 | [5] 0.03 | saracatinib 0.024 | sotrastaurin -0.047

GPRC5C isoform 2 (UniProt Q9NQ84)
inactive: [4] 0.018 | [5] 0.08

GPATCH3 (UniProt Q96I76)
inactive: [3] -0.026 | [4] 0.006 | [5] 0.111 | sotrastaurin -0.046

GPSM2 (UniProt P81274)
inactive: vemurafenib 0.106 | [1] -0.015 | barasertib 0.055 | [2] 0.218 | volasertib 0.035 | [4] -0.345 | [5] 0.196 | saracatinib 0.023 | sotrastaurin 0.042

GNB4 (UniProt Q9HAV0)
inactive: [1] 0.089 | barasertib -0.046 | [2] -0.018 | volasertib -0.036 | [3] 0.016 | [4] 0.001 | [5] 0.166 | saracatinib -0.165 | sotrastaurin -0.04

GNA12 (UniProt Q03113)
inactive: vemurafenib 0.196 | [1] -0.047 | barasertib 0.117 | [2] -0.17 | volasertib 0.01 | [3] -0.012 | saracatinib -0.048 | sotrastaurin -0.218

GLDC (UniProt P23378)
inactive: barasertib 0.004

GOSR1 (UniProt E9PCW1)
inactive: barasertib 0.486 | [3] 0.19 | [4] 0.096 | [5] 0.002 | saracatinib -0.057 | sotrastaurin -0.05

GPSM1 (UniProt Q86YR5)
inactive: vemurafenib 0.093 | [2] -0.014 | sotrastaurin 0.017

GPR68 (UniProt Q15743)
inactive: sotrastaurin -0.037

GLIPR2 (UniProt Q9H4G4)
inactive: vemurafenib -0.062 | [1] -0.025 | barasertib -0.017 | [2] 0.024 | volasertib 0.001 | [3] 0.014 | [4] 0.045 | [5] -0.035 | saracatinib -0.058 | sotrastaurin 0.033

GMPPA (UniProt Q96IJ6)
inactive: vemurafenib -0.004 | [1] 0.043 | barasertib 0.004 | [2] -0.078 | volasertib -0.051 | [3] -0.011 | [4] -0.125 | [5] 0.04 | saracatinib -0.019 | sotrastaurin -0.007

GPNMB (UniProt Q14956)
inactive: [1] 0.108 | barasertib 0.077 | volasertib 0.002 | [4] -0.634 | [5] 0.139 | saracatinib 0.096 | sotrastaurin -0.123

GOLGB1 isoform 4 (UniProt Q14789)
inactive: [3] -0.04 | saracatinib 0.058

GPATCH2L (UniProt Q9NWQ4)
inactive: [2] 0.064 | [3] -0.121 | saracatinib 0.036 | sotrastaurin -0.1

Two consecutive records out of the list so far, quoted:
GMPPA (UniProt Q96IJ6)
inactive: vemurafenib -0.004 | [1] 0.043 | barasertib 0.004 | [2] -0.078 | volasertib -0.051 | [3] -0.011 | [4] -0.125 | [5] 0.04 | saracatinib -0.019 | sotrastaurin -0.007

GPNMB (UniProt Q14956)
inactive: [1] 0.108 | barasertib 0.077 | volasertib 0.002 | [4] -0.634 | [5] 0.139 | saracatinib 0.096 | sotrastaurin -0.123

(next part)

GOLGA4 (UniProt Q13439)
inactive: vemurafenib 0.135 | barasertib 0.583 | [2] 0.013 | [3] -0.071 | saracatinib -0.022 | sotrastaurin 0.037

GMPR2 isoform 2 (UniProt Q9P2T1)
inactive: vemurafenib 0.018 | [1] -0.019 | barasertib 0.003 | [2] -0.003 | volasertib 0.023 | [3] 0.011 | [4] 0.076 | [5] 0.037 | saracatinib -0.027 | sotrastaurin -0.007

GNAS isoform 3 (UniProt P63092)
inactive: [1] 0.013 | volasertib 0 | [4] 0.227 | [5] -0.033 | sotrastaurin 0.095

GINM1 (UniProt Q9NU53)
inactive: [4] -0.903 | [5] 0.397 | sotrastaurin -0.041

GNPTAB (UniProt Q3T906)
inactive: barasertib 0.136 | [3] 0.024 | [4] -0.01 | [5] -0.054 | saracatinib -0.048 | sotrastaurin 0.049

GNAI1 (UniProt P63096)
inactive: [4] -0.098 | [5] 0.061

GLRX (UniProt P35754)
inactive: vemurafenib 0.122 | [2] -0.151 | sotrastaurin 0.052

GNAS isoform 2 (UniProt Q5JWF2)
inactive: barasertib -0.135

GPR180 (UniProt Q86V85)
inactive: sotrastaurin 0.084

GK5 (UniProt Q6ZS86)
inactive: sotrastaurin -0.09

GPLD1 (UniProt P80108)
inactive: saracatinib 0.236 | sotrastaurin -0.13

Random excerpt: three records from the list.
GK5 (UniProt Q6ZS86)
inactive: sotrastaurin -0.09

GLRX (UniProt P35754)
inactive: vemurafenib 0.122 | [2] -0.151 | sotrastaurin 0.052

GPR180 (UniProt Q86V85)
inactive: sotrastaurin 0.084

Further records follow.

GMPR (UniProt P36959)
inactive: vemurafenib -0.013 | [1] -0.013 | barasertib 0.034 | [2] -0.005 | volasertib 0.033 | [3] -0.054 | [4] 0.088 | [5] -0.02 | saracatinib 0.003 | sotrastaurin -0.019

GIPC3 (UniProt Q8TF64)
inactive: [1] -0.119 | barasertib 0.055 | [2] -0.15 | volasertib -0.041 | [3] -0.045 | [4] -0.01 | [5] 0.144 | saracatinib 0.029 | sotrastaurin 0.006

GPN2 (UniProt Q9H9Y4)
inactive: vemurafenib -0.027 | [1] 0.026 | [2] -0.098 | volasertib -0.028 | [3] 0.072 | [4] 0.009 | [5] 0.019 | saracatinib 0.003 | sotrastaurin 0.021

GLMP (UniProt Q8WWB7)
inactive: vemurafenib 0.153 | [2] 0.071 | [3] 0.042 | saracatinib 0.139 | sotrastaurin -0.083
